Patent publication US8748575B2 (Combimab, Inc., priority 2010, dated 2014)

Experiment: peptide synthesis
Conditions: whole synthesis, HPLC

Substance | purity (crude or final not stated) [%]
H2N Cys Cys Glu L-Thr Cys Cys Asn Pro Ala Cys Ala Gly Cys Tyr COOH (CCETCCNPACAGCY) | 97
H2N Cys Cys Glu Leu Cys Cys Asn Dhp Ala Cys Ala Gly Cys Tyr COOH | 98
H2N Cys Cys Glu Leu Cys Cys Asn HyPro Ala Cys Ala Gly Cys Tyr COOH | 95
H2N Cys Cys Glu Leu Cys Cys Asn Thz Ala Cys Ala Gly Cys Tyr COOH | 99
